Laboratory results as given in PubChem BioAssay AID540256 (National Center for Advancing Translational Sciences (NCATS), 2011).
Out of some 300,000 compounds screened, about 3,700 (1.2%) were called active. Inconclusive means that the source gave no clear call. Such entries were picked first, then a sample of the others. Calls come from the whole dose curve; tested in HEK293 cells. Where the call is inconclusive, the potency comes from a doubtful curve fit.

Experiment: qHTS for Inhibitors of binding or entry into cells for Lassa Virus; note: nearly all actives have a fitted effect of over 50% in size
Settings: Lassa virus pseudotype entry inhibition, cell reporter; activity change, negative = inhibition: at 37.9 µM (top of the series) unless noted
% is set by controls: 0 for no effect and ±100 for the full control effect; potency is the fitted concentration of half-maximal effect.

**Q.** For `COc1ccccc1OCc1ccc(C(=O)NCc2cccnc2)o1`, which Potency is on record?
**A.** Its Potency is “inactive”.

**Q.** Which Potency does the source give for `O=C(Nc1cccc(S(=O)(=O)NC2=NCCC2)c1)c1cc(-c2ccco2)nc2ccccc12` here?
**A.** Its Potency is inconclusive: 7.3 µM [inhibitor, full curve, poor fit].

**Q.** For `COc1ccc(Nc2ncnc3sc(-c4ccccc4)cc23)cc1OC`, which Potency is on record?
**A.** The Potency was inconclusive: 0.891 µM [inhibitor, full curve, poor fit].

**Q.** With `COc1ccc(COn2nnc3ccc(S(=O)(=O)N4CCOCC4)cc32)cc1F` as the compound, how does the Potency read?
**A.** The Potency was “inactive”.

**Q.** With `Cc1sc2ncnc(N3CCC(C(=O)N(C)CC(=O)Nc4ccc(Cl)c(C(F)(F)F)c4)CC3)c2c1C` as the compound, how does the Potency read?
**A.** The Potency was active: 7.08 µM.

**Q.** Which Potency does the source give for `CCOC(=O)C(=Cc1ccc(-n2ccnc2)cc1)C(=O)OCC` here?
**A.** Its Potency is inconclusive: 22.4 µM [inhibitor, partial curve, poor fit].

**Q.** Which Potency does the source give for `CC1(C(=O)Nc2ncc(Cc3ccc(Br)cc3)s2)Cc2ccccc2C(=O)O1` (stereo not drawn) here?
**A.** Its Potency is inconclusive: 6.31 µM [inhibitor, single point].

**Q.** With `Cc1ccc(NC(=O)C(C)c2cccc(C(=O)c3ccccc3)c2)cc1O` (stereo not drawn) as the compound, how does the Potency read?
**A.** Its Potency is inconclusive: 35.5 µM [inhibitor, single point].

**Q.** For `Oc1ccc(C=NC2CCCCC2)c(O)c1`, which Potency is on record?
**A.** Its Potency is inconclusive: 5.01 µM [inhibitor, partial curve].

**Q.** For `Cc1cc(C)c2nc(NC(=O)c3ccc([N+](=O)[O-])o3)sc2c1`, which activity change, negative = inhibition is on record?
**A.** Its activity change, negative = inhibition is inconclusive: 1% [activator].

**Q.** Which Potency does the source give for `COc1cc(OC)c(NC(=O)c2c3c(nn2C)-c2ccccc2SC3)cc1Cl` here?
**A.** Its Potency is inconclusive: 12.6 µM [inhibitor, single point].

**Q.** With `CC(C)CCN1CCN(Cc2cccs2)CC1CCO` (stereo not drawn) as the compound, how does the Potency read?
**A.** Its Potency is inconclusive: 3.55 µM [inhibitor, partial curve, poor fit].

**Q.** For `O=[N+]([O-])c1ccc(/C=C/c2nc3ccc([N+](=O)[O-])cc3[nH]2)cc1`, which Potency is on record?
**A.** Its Potency is inconclusive: 4.11 µM [activator, single point].

**Q.** Which Potency does the source give for `CN(C)S(=O)(=O)c1ccc(C(=O)Nc2nnc(SCc3cccc(F)c3)s2)cc1` here?
**A.** The Potency was inconclusive: 25.1 µM [activator, single point].

**Q.** For `Cc1ccc2c(c1)NC(=O)C(CC(=O)NC1CCCCC1C)O2` (stereo not drawn), which Potency is on record?
**A.** The Potency was “inactive”.

**Q.** For `CNC(=O)c1cccn(Cc2cc(C(F)(F)F)cc(C(F)(F)F)c2)c1=O`, which Potency is on record?
**A.** The Potency was inconclusive: 22.4 µM [inhibitor, single point].

**Q.** With `CCN(CCn1cccn1)C(=O)c1cc(COc2cc(C)ccc2C)on1` as the compound, how does the Potency read?
**A.** The Potency was inconclusive: 35.5 µM [inhibitor, single point].

**Q.** Which Potency does the source give for `CCc1ccccc1Nc1nn2c(=O)c3ccc(C(=O)NC4CCCCC4)cc3nc2s1` here?
**A.** The Potency was “inactive”.

**Q.** For `Cc1ccc(NC(=O)CC2CCCC2)c(Br)c1`, which Potency is on record?
**A.** Its Potency is “inactive”.

**Q.** With `Cc1cc(NC(=O)CSCC(=O)N(C)Cc2ccc(F)cc2)no1` as the compound, how does the Potency read?
**A.** The Potency was “inactive”.

**Q.** Which Potency does the source give for `O=c1c2cc(N3CCOCC3)ccc2[nH]c(=S)n1Cc1ccc(Cl)cc1` here?
**A.** The Potency was inconclusive: 8.91 µM [inhibitor, partial curve, poor fit].

**Q.** Which Potency does the source give for `CCOc1cccc(-c2nc3cc(C)ccc3o2)c1` here?
**A.** The Potency was “inactive”.

**Q.** For `Cn1c(=O)cc(OCC(=O)NCc2ccc(F)cc2Cl)c2ccccc21`, which Potency is on record?
**A.** The Potency was inconclusive: 12.6 µM [activator, partial curve, poor fit].

**Q.** With `COc1ccccc1NC(=O)CSc1nnnn1-c1ccc(F)cc1` as the compound, how does the Potency read?
**A.** Its Potency is “inactive”.

**Q.** With `COc1ccc(NC(=O)c2sc3nc(C)nc(N4CCN(c5ccccn5)CC4)c3c2C)c(OC)c1` as the compound, how does the Potency read?
**A.** Its Potency is inconclusive: 35.5 µM [inhibitor, single point].

**Q.** Which Potency does the source give for `Cc1ccc(-c2nc(Nc3ccc(O)cc3)c3ccccc3n2)cc1` here?
**A.** Its Potency is inconclusive: 35.5 µM [inhibitor, single point].

**Q.** Which Potency does the source give for `Cc1nn(-c2ccccc2)c2sc(C(=O)Nc3cccc(O)c3)cc12` here?
**A.** The Potency was inconclusive: 11.2 µM [inhibitor, single point].

**Q.** For `CCCOC1CCCN(C(=O)c2cc(COc3ccc(F)c(F)c3)on2)C1` (stereo not drawn), which Potency is on record?
**A.** The Potency was “inactive”.

**Q.** Which Potency does the source give for `COCCn1c(N2CCN(c3ccc(OC)cc3)CC2)nc2c1c(=O)n(C)c(=O)n2C` here?
**A.** The Potency was inconclusive: 20.6 µM [inhibitor, single point].

**Q.** For `COc1cc2[nH]c(C(=O)N3CCc4ccccc4C3)cc2c(OC)c1OC`, which Potency is on record?
**A.** The Potency was inconclusive: 10 µM [inhibitor, partial curve, poor fit].

**Q.** Which Potency does the source give for `CCN(c1ccccc1)S(=O)(=O)c1ccc(N2CCN(c3ccc(O)cc3)CC2)nc1` here?
**A.** Its Potency is active: 7.94 µM.

**Q.** Which Potency does the source give for `COCCCN=C(c1ccco1)n1c(=S)nc(-c2ccco2)n(CCCOC)c1=S` here?
**A.** The Potency was “inactive”.

**Q.** With `CCOc1ccc(NS(=O)(=O)c2ccc3nc(-c4ccccc4)[nH]c3c2)cc1` as the compound, how does the Potency read?
**A.** Its Potency is inconclusive: 35.5 µM [inhibitor, partial curve, poor fit].

**Q.** With `O=C(C/C=N/OCc1ccc(Cl)cc1Cl)c1ccc(Cl)cc1` as the compound, how does the Potency read?
**A.** The Potency was “inactive”.

**Q.** With `COc1cc(OC)c(Nc2c3c(nc4nc(-c5cccs5)nn24)CCCC3)cc1Cl` as the compound, how does the Potency read?
**A.** The Potency was inconclusive: 35.5 µM [inhibitor, single point].

**Q.** With `O=C(c1ccc(OC2CCN(C/C=C/c3ccccc3)CC2)cc1)N1CCCC1` as the compound, how does the Potency read?
**A.** The Potency was “inactive”.

**Q.** For `O=C(Nc1cc(Cl)cc(Cl)c1)c1ccc(F)c(S(=O)(=O)NCc2ccccc2Cl)c1`, which Potency is on record?
**A.** The Potency was “inactive”.

**Q.** Which Potency does the source give for `CCOCCCNC(=S)NCCc1ccccc1` here?
**A.** Its Potency is inconclusive: 11.6 µM [activator, partial curve, poor fit].

**Q.** For `CCOC(=O)CCS(=O)(=O)c1nc(-c2ccccc2)cc(C(F)(F)F)n1`, which Potency is on record?
**A.** The Potency was active: 12.6 µM.

**Q.** For `O=C(Nc1ccccc1C(=O)OCC(=O)c1c[nH]c2ccccc12)c1ccco1`, which Potency is on record?
**A.** The Potency was inconclusive: 20 µM [inhibitor, partial curve, poor fit].

**Q.** For `Cc1cc(C)c2oc(-c3ccc(C)c(NC(=S)NC(=O)c4cccs4)c3)nc2c1`, which Potency is on record?
**A.** Its Potency is “inactive”.

**Q.** Which Potency does the source give for `COc1ccc(N(C)S(=O)(=O)c2cccc(C(=O)NCc3ccc(C)cc3)c2)cc1` here?
**A.** The Potency was inconclusive: 31.6 µM [inhibitor, single point].

**Q.** With `COC(=O)/C=C(\C)N=Nc1c(O)[nH]c2ccccc12` as the compound, how does the Potency read?
**A.** Its Potency is inconclusive: 28.2 µM [activator, single point].

**Q.** Which Potency does the source give for `CCC(C)NC(=O)c1ccc2nc(Cc3ccccc3)oc2c1` (stereo not drawn) here?
**A.** Its Potency is inconclusive: 11.2 µM [inhibitor, partial curve, poor fit].

**Q.** With `COc1cc(/C=C(\C#N)C(=O)Nc2nnc(C(F)(F)F)s2)ccc1OCc1ccc(C(F)(F)F)cc1C(F)(F)F` as the compound, how does the Potency read?
**A.** Its Potency is active: 14.6 µM.

**Q.** With `COc1ccccc1NS(=O)(=O)c1cccc(NS(=O)(=O)c2cc(C(=O)O)ccc2OC)c1` as the compound, how does the Potency read?
**A.** The Potency was “inactive”.

**Q.** With `C/C=C/c1ccc(OCCCNC2CCCC2)c(OC)c1` as the compound, how does the Potency read?
**A.** Its Potency is inconclusive: 29.1 µM [inhibitor, single point].

**Q.** Which Potency does the source give for `NC(=O)CCn1nc(-c2ccc(Cl)cc2)c2ccccc2c1=O` here?
**A.** Its Potency is inconclusive: 22.4 µM [activator, single point].

**Q.** Which Potency does the source give for `CSc1nc(N(C)NC(=O)c2ccc(F)cc2)c2ccccc2n1` here?
**A.** The Potency was inconclusive: 0.891 µM [inhibitor, partial curve].

**Q.** Which Potency does the source give for `O=C(CCC(=O)N/N=C/c1c[nH]c2ccccc12)NCc1ccccc1` here?
**A.** The Potency was “inactive”.

**Q.** With `CC(=O)Nc1nnc(SCC(=O)N2C(C)CCCC2C)s1` (stereo not drawn) as the compound, how does the Potency read?
**A.** Its Potency is inconclusive: 2.51 µM [inhibitor, single point].

**Q.** Which Potency does the source give for `CC(C)c1cc(C(=O)OCC(=O)NC(=O)NCc2ccco2)c(O)c(C(C)C)c1` here?
**A.** Its Potency is inconclusive: 35.5 µM [inhibitor, single point].

**Q.** With `COc1cc(C2CC(=O)Nc3c2c(C)nn3-c2nncc(-c3ccccc3)n2)cc(OC)c1OC` (stereo not drawn) as the compound, how does the Potency read?
**A.** The Potency was inconclusive: 3.16 µM [activator, single point].

**Q.** For `O=C(NCCn1cc(SCc2ccccc2)c2ccccc21)c1ccccc1F`, which Potency is on record?
**A.** Its Potency is inconclusive: 29.1 µM [inhibitor, single point].

**Q.** With `CCOC(=O)CNC(=O)C1Cc2ccccc2CN1S(=O)(=O)c1cccs1` (stereo not drawn) as the compound, how does the Potency read?
**A.** Its Potency is “inactive”.

**Q.** With `COc1cccc(-c2nc(=S)c3c(n2Cc2ccco2)CCCC3)c1` as the compound, how does the Potency read?
**A.** The Potency was inconclusive: 29.1 µM [inhibitor, single point].

**Q.** Which Potency does the source give for `COC(=O)c1nc(NC(=O)c2cc(OC)c(OC)c(OC)c2)n[nH]1` here?
**A.** Its Potency is “inactive”.

**Q.** With `N#Cc1c(C(F)(F)F)cc(-c2cccs2)nc1SCc1cccnc1` as the compound, how does the Potency read?
**A.** The Potency was inconclusive: 11.6 µM [inhibitor, partial curve, poor fit].

**Q.** With `CCc1ccc2c(c1)NC(c1cccnc1)=NC(c1ccc(C(C)(C)C)cc1)=N2` as the compound, how does the Potency read?
**A.** Its Potency is inconclusive: 35.5 µM [inhibitor, single point].

**Q.** Which Potency does the source give for `CN1C(=O)C(C)(C)c2cc(S(=O)(=O)NCC3CCC(C(=O)NCc4ccc(F)cc4)CC3)ccc21` (stereo not drawn) here?
**A.** The Potency was “inactive”.

**Q.** Which Potency does the source give for `Cc1[nH]n(-c2ccccc2)c(=O)c1/C=N/NC(=O)c1cccc([N+](=O)[O-])c1` here?
**A.** The Potency was inconclusive: 35.5 µM [inhibitor, single point].

**Q.** Which Potency does the source give for `COc1cc(C(C#N)N2CCC(c3ccccc3)=N2)ccc1O` (stereo not drawn) here?
**A.** Its Potency is “inactive”.

**Q.** With `O=C(NCC1CCCO1)c1ccc2c(c1)OCO2` (stereo not drawn) as the compound, how does the Potency read?
**A.** The Potency was inconclusive: 25.9 µM [activator, partial curve, poor fit].

**Q.** For `CC(=O)Nc1ccc(S(=O)(=O)N2CCN(CC3CC4C=CC3C4)CC2)cc1` (stereo not drawn), which Potency is on record?
**A.** Its Potency is inconclusive: 6.51 µM [inhibitor, full curve, poor fit].

**Q.** Which Potency does the source give for `COC(=O)CC1C(=O)NCCN1C(=S)Nc1ccccc1Cl` (stereo not drawn) here?
**A.** Its Potency is inconclusive: 1.26 µM [inhibitor, single point].

**Q.** Which Potency does the source give for `Cc1ccc(NCc2nnc(SCC(=O)Nc3ncc(C)s3)n2Cc2ccco2)c(C)c1` here?
**A.** Its Potency is inconclusive: 10.3 µM [activator, partial curve, poor fit].

**Q.** With `O=C(NC1CCCCC1)C(c1c(F)cccc1Cl)N(C(=O)c1csnn1)C1CC1` (stereo not drawn) as the compound, how does the Potency read?
**A.** Its Potency is “inactive”.

**Q.** For `CC1CCCCN1S(=O)(=O)c1ccc(C(=O)Nc2nnc(C3CC3)o2)cc1` (stereo not drawn), which Potency is on record?
**A.** The Potency was inconclusive: 10 µM [inhibitor, partial curve, poor fit].
